Test results reported in PMC2572727, “The GET Complex Mediates Insertion of Tail-Anchored Proteins into the ER Membrane” (Cell, 2008).
Like-named read-outs stand apart in the source and are kept apart here. No constants are given. Whether binding was seen depends on the method and setting. For some of these results: Binding seen in cells or lysates may run through a third protein. Some entries that bind do so weakly or less than the wild type.

The chains behind the UniProt entries cited, without tags or fusion partners. Residues count along the entry.
UniProt Q01590, residues 197-340: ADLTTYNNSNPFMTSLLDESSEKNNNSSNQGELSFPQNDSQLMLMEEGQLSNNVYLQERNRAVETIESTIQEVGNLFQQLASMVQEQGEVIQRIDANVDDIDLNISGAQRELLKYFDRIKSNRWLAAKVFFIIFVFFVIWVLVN
UniProt P22214: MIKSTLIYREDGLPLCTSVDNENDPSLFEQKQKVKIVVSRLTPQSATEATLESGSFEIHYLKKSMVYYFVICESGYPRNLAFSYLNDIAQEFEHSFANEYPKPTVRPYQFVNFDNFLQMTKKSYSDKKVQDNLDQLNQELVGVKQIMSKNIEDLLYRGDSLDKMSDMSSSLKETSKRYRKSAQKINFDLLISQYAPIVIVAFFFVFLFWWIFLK
UniProt Q08144: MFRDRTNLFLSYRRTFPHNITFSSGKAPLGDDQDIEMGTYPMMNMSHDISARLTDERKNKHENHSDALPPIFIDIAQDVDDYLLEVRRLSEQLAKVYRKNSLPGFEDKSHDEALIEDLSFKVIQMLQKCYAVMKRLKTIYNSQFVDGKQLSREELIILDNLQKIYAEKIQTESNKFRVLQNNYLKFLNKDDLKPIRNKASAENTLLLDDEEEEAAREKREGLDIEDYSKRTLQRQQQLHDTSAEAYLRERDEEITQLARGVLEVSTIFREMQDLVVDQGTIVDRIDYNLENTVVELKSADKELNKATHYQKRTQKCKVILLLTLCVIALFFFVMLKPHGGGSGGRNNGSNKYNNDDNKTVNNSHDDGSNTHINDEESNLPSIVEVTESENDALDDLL

Tests used:
[1] = biological target: T1, Get3 (yeast two-hybrid bait) (yeast) (UniProt Q12154); experiment: two-hybrid; Get3 as bait, genomic library or directed TA protein preys (with or without their TMDs); Gal4-driven HIS3 reporter, growth on medium lacking histidine
T1 sequence: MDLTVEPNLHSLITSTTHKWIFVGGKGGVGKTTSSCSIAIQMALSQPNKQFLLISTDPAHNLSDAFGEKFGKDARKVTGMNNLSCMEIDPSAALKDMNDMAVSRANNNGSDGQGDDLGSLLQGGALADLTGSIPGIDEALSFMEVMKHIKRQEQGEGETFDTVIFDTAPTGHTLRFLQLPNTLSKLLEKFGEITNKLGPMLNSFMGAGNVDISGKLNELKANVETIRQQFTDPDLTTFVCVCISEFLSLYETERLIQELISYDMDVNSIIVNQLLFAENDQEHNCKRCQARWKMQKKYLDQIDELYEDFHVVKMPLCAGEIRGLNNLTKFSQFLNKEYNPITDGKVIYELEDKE

[2] = biological target: T2, Get1/Get2 complex (endogenous, in microsomes of the Δget3 strain) (yeast (endogenous in microsomes of the Δget3 strain)) (UniProt P53192+P40056); experiment: co-sedimentation; recombinant Get3 incubated with microsomes from Δget3 or Δget1/2/3 strains with or without ATP, 30°C for 1 hr; flotation in an Optiprep gradient (166,000 x g, 3 hr, 4°C) separating microsomes from unbound protein; fractions blotted with αGet3; only the binder purified
T2 sequence 1: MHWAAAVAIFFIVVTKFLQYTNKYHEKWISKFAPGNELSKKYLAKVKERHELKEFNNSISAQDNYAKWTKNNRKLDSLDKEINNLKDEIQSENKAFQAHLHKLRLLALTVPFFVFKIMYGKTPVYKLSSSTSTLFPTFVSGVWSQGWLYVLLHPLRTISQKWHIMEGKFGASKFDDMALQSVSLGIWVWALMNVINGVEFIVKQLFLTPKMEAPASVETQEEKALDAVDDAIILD
T2 sequence 2: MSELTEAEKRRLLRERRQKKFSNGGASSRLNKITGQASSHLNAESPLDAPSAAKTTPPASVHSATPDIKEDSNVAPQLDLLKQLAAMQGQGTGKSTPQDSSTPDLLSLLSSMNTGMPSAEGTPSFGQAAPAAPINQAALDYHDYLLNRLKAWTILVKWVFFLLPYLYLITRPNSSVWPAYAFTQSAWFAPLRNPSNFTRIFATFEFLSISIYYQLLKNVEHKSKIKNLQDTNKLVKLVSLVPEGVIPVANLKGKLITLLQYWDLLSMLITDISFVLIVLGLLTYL

[3] = biological target: Get2-HA (yeast) (UniProt P40056); experiment: co-purification; epitope-tagged versions of Get1 and Get2 copurified from yeast; details in the Supplemental Data
[4] = biological target: T1, Get3 (yeast two-hybrid bait) (yeast); experiment: two-hybrid; Get3 as bait, genomic library or directed TA protein preys (with or without their TMDs); Gal4-driven HIS3 reporter, growth on medium lacking histidine; remark: listed apart in the source

“Sed5_(197–340) (from UniProt Q01590 197-340) (domain or fragment)” was tested, and the binding [1] was “binds”.

With “Sec22 (two-hybrid prey) (from UniProt P22214 1-214)” the binding [1] was “binds”.

“Tlg2 (two-hybrid prey) (from UniProt Q08144 1-397)” was tested, and the binding [1] was “binds”.

B1: recombinant Get3 ATPase (enzyme, yeast, UniProt Q12154 1-354, looked up)
chain: MDLTVEPNLHSLITSTTHKWIFVGGKGGVGKTTSSCSIAIQMALSQPNKQFLLISTDPAHNLSDAFGEKFGKDARKVTGMNNLSCMEIDPSAALKDMNDMAVSRANNNGSDGQGDDLGSLLQGGALADLTGSIPGIDEALSFMEVMKHIKRQEQGEGETFDTVIFDTAPTGHTLRFLQLPNTLSKLLEKFGEITNKLGPMLNSFMGAGNVDISGKLNELKANVETIRQQFTDPDLTTFVCVCISEFLSLYETERLIQELISYDMDVNSIIVNQLLFAENDQEHNCKRCQARWKMQKKYLDQIDELYEDFHVVKMPLCAGEIRGLNNLTKFSQFLNKEYNPITDGKVIYELEDKE
notes: Get3 (Arr4), yeast homolog of Asna1/TRC40, soluble cytosolic ATPase; also called Arr4; source: purified from Escherichia coli (Metz et al., 2006)
For B1, the binding [2] was “binds”.

B2: Get1-PC (protein, UniProt P53192 1-235)
chain: MHWAAAVAIFFIVVTKFLQYTNKYHEKWISKFAPGNELSKKYLAKVKERHELKEFNNSISAQDNYAKWTKNNRKLDSLDKEINNLKDEIQSENKAFQAHLHKLRLLALTVPFFVFKIMYGKTPVYKLSSSTSTLFPTFVSGVWSQGWLYVLLHPLRTISQKWHIMEGKFGASKFDDMALQSVSLGIWVWALMNVINGVEFIVKQLFLTPKMEAPASVETQEEKALDAVDDAIILD
With B2 the binding [3] was “binds”.

B3: Pex15 (two-hybrid prey) (protein, UniProt Q08215 1-383)
chain: MAASEIMNNLPMHSLDSSLRDLLNDDLFIESDESTKSVNDQRSEVFQECVNLFIKRDIKDCLEKMSEVGFIDITVFKSNPMILDLFVSACDIMPSFTKLGLTLQSEILNIFTLDTPQCIETRKIILGDLSKLLVINKFFRCCIKVIQFNLTDHTEQEEKTLELESIMSDFIFVYITKMRTTIDVVGLQELIEIFIFQVKVKLHHKKPSPNMYWALCKTLPKLSPTLKGLYLSKDVSIEDAILNSIDNKIQKDKAKSKGKQRGVKQKIHHFHEPMLHNSSEEQVKVEDAFNQRTSTDSRLQSTGTAPRKKNNDITVLAGSFWAVLKHHFTRSVLNKNGLLLTGLLLLLCLKKYKSLMAIFKHVPAAFHTVYPQIVGLLKLLASI
In the case of B3, the binding [4] is reported as “binds”.

B4: Fis1 (two-hybrid prey) (protein, UniProt P40515 1-155)
chain: MTKVDFWPTLKDAYEPLYPQQLEILRQQVVSEGGPTATIQSRFNYAWGLIKSTDVNDERLGVKILTDIYKEAESRRRECLYYLTIGCYKLGEYSMAKRYVDTLFEHERNNKQVGALKSMVEDKIQKETLKGVVVAGGVLAGAVAVASFFLRNKRR
For B4, the binding [4] was “no binding”.
